Results reported in article PMC3404119.

T1: Hes6 (zebrafish) (UniProt Q6P0J1)
T1 sequence: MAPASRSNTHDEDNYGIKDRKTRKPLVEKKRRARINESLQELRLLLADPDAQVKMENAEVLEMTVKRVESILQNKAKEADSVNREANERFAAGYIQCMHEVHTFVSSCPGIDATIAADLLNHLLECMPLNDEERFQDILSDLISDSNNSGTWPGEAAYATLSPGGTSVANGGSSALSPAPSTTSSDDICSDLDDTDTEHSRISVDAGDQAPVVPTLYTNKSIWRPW


Legend:
Hes6 (zebrafish) [1] = target: T1, Hes6 (zebrafish); experiment: MITOMI (mechanically induced trapping of molecular interactions); GFP-tagged Her protein from wheat germ extract immobilised on the microfluidic chip surface with anti-GFP antibody and washed with PBS; mCherry-tagged protein expressed on chip in wheat germ extract with 250 nM Cy5-labelled DNA oligomer; 3 h at room temperature; slope of free against bound mCherry signal as relative affinity
Hes6 (zebrafish) [2] = target: T1, Hes6 (zebrafish); experiment: co-IP; GFP-tagged Her1, Her7 or Hes6 co-expressed with mCherry-tagged proteins in an in vitro transcription-translation system; immunoprecipitation with a GFP antibody, immunoblot for mCherry
Her7 (zebrafish) [3] = experiment: as above
Her1 (zebrafish) = experiment: as above
Her7 (zebrafish) [4] = experiment: MITOMI (mechanically induced trapping of molecular interactions); GFP-tagged Her protein from wheat germ extract immobilised on the microfluidic chip surface with anti-GFP antibody and washed with PBS; mCherry-tagged protein expressed on chip in wheat germ extract with 250 nM Cy5-labelled DNA oligomer; 3 h at room temperature; slope of free against bound mCherry signal as relative affinity

Molecule | binding (Hes6 (zebrafish) [1]) | binding (Hes6 (zebrafish) [2]) | binding (Her7 (zebrafish) [3]) | binding (Her1 (zebrafish)) | binding (Her7 (zebrafish) [4])
Her1 (zebrafish) | binds | binds |  |  | 
PPARγ (peroxisome proliferator-activated receptor gamma) |  | no binding |  |  | 

The next lines start with the values.

binding (Hes6 (zebrafish) [1]) | binding (Hes6 (zebrafish) [2]) | binding (Her7 (zebrafish) [3]) | binding (Her1 (zebrafish)) | binding (Her7 (zebrafish) [4]) | Molecule
binds | binds |  |  |  | Her7 (zebrafish)
 |  | binds | binds | binds | Hes6 (protein, UniProt Q6P0J1 1-226) MAPASRSNTHDEDNYGIKDRKTRKPLVEKKRRARINESLQELRLLLADPDAQVKMENAEVLEMTVKRVESILQNKAKEADSVNREANERFAAGYIQCMHEVHTFVSSCPGIDATIAADLLNHLLECMPLNDEERFQDILSDLISDSNNSGTWPGEAAYATLSPGGTSVANGGSSALSPAPSTTSSDDICSDLDDTDTEHSRISVDAGDQAPVVPTLYTNKSIWRPW

These are yes or no findings as the source states them, for the method shown. Binding calls can cover weak binding; strength is not graded here. For some assays here: In cells and extracts the contact can be indirect.
